Source: the supplement of paper PMC9015667
Structures can show the parent of a compound that is named as a salt. The list shows a part of the results. Single values are uncertain, as repeats are few or missing.

tested on: M229R (matched melanoma line resistant to BRAF inhibitors); assay: reduction in cell viability relative to untreated/vehicle; higher = more growth inhibition; conditions: 200 nM; 72 h

Row | SMILES | reduction in cell viability [%]
1 | O=c1[nH]c(=O)n([C@H]2C[C@H](O)[C@@H](CO)O2)cc1C(F)(F)F [Trifluridine] | < 0
2 | C[C@@H](Oc1cc(-n2cnc3ccc(CN4CCN(C)CC4)cc32)sc1C(N)=O)c1ccccc1C(F)(F)F | 5.34
3 | Cc1ccc(S(=O)(=O)N[C@@H](Cc2ccccc2)C(=O)CCl)cc1 | < 0
4 | Cn1cc(C2=C(c3ccc(Cl)cc3Cl)C(=O)NC2=O)c2ccccc21 | < 0
5 | CCc1c2c(nc3ccc(O)cc13)-c1cc3c(c(=O)n1C2)COC(=O)[C@]3(O)CC | 69.7
6 | CCC1(c2ccccc2)C(=O)NCNC1=O [Primidone] | < 0
7 | O=C1CN2Cc3c(ccc(Cl)c3Cl)N=C2N1 [anagrelide] | < 0
8 | O=NN(CCCl)C(=O)NC1CCCCC1 [Lomustine] | < 0
9 | COC(=O)Nc1nc2cc(C(=O)c3ccccc3)ccc2[nH]1 [Mebendazole] | 48.5
10 | O=C(c1ccc(F)c(F)c1Nc1ccc(I)cc1F)N1CC(O)([C@@H]2CCCCN2)C1 | < 0
11 | NC(=O)c1ccc(I)c([N+](=O)[O-])c1 [Iniparib] | < 0
12 | CCn1c(=O)c2c(nc(/C=C/c3ccc(OC)c(OC)c3)n2C)n(CC)c1=O [Istradefylline] | < 0
13 | Cc1ccc2c(=O)c3cccc(CC(=O)O)c3oc2c1C [Vadimezan] | < 0
14 | Cc1cc(C(C)Nc2ccccc2)c2nc(N3CCOCC3)cc(=O)n2c1 (centres undefined) | < 0
15 | O=NN(CCCl)C(=O)NCCCl [Carmustine] | < 0
16 | NC(=O)[C@@H](CCC(F)(F)F)N(Cc1ccc(-c2ncon2)cc1F)S(=O)(=O)c1ccc(Cl)cc1 [Avagacestat] | < 0
17 | CNCCCC12CCC(c3ccccc31)c1ccccc12 [Maprotiline hydrochloride] | < 0
18 | COc1ccc(/C=C\c2cc(OC)c(OC)c(OC)c2)cc1NC(=O)[C@@H](N)CO [Ombrabulin] | 53.1
19 | COc1ccc(-c2nc(N3CCOCC3)c3sc(CN(C)c4ncc(C(=O)NO)cn4)cc3n2)cn1 | < 0
20 | Cc1cn2cc(C(=O)N(C)CCO)cc(N[C@@H]3CCOc4cccc(C)c43)c2n1 | < 0

Row | SMILES | reduction in cell viability [%]
21 | CC1(C)NC(=O)N(c2ccc([N+](=O)[O-])c(C(F)(F)F)c2)C1=O [Nilutamide] | < 0
22 | COc1ccc(OC)c(-c2nnc3ccc(-c4ccc(OC)c(O[C@@H]5CCOC5)c4)nn23)c1 | < 0
23 | O=c1ccn([C@@H]2O[C@H](CO)[C@@H](O)[C@H]2O)c(=O)[nH]1 [Uridine] | < 0
24 | Cc1ccc(C(=O)Nc2cccc(C(F)(F)F)c2)cc1Nc1nc(-c2cccnc2)nc2c1cnn2C | < 0
25 | Oc1cc(O)c(Cl)cn1 [Gimeracil] | < 0
26 | C[C@H]1O[C@@H](O[C@H]2[C@@H](O)C[C@H](O[C@H]3[C@@H](O)C[C@H](O[C@H]4CC[C@@]5(C)[C@H](CC[C@@H]6[C@@H]5C[C@@H](O)[C@]5(C)[C@@H](C7=CC(=O)OC7)CC[C@]65O)C4)O[C@@H]3C)O[C@@H]2C)C[C@H](O)[C@@H]1O [Digoxin] | 70.8
27 | COc1cc(C(=O)NS(=O)(=O)c2ccccc2C)ccc1Cc1cn(C)c2ccc(NC(=O)OC3CCCC3)cc12 [Zafirlukast] | < 0
28 | Cn1cnc2c(F)c(Nc3ccc(Br)cc3F)c(C(=O)NOCCO)cc21 | < 0
29 | O=C(/C=C/c1cccc(S(=O)(=O)Nc2ccccc2)c1)NO [Belinostat] | 30.7
30 | CN(C)c1nc(N(C)C)nc(N(C)C)n1 [Altretamine] | < 0
31 | COc1ccc2ccc(=O)oc2c1CC=C(C)C [Ostol] | < 0
32 | CN1CC(=O)N2[C@H](c3ccc4c(c3)OCO4)c3[nH]c4ccccc4c3C[C@@H]2C1=O [Tadalafil] | < 0
33 | OC(c1cc(C(F)(F)F)nc2c(C(F)(F)F)cccc12)C1CCCCN1 (centres undefined) [Mefloquine] | < 0
34 | CN1CCN(c2ccc3nc(-c4c(N)c5c(F)cccc5[nH]c4=O)[nH]c3c2)CC1 [Dovitinib] | < 0
35 | c1ccc([C@H]2CN3CCSC3=N2)cc1 [L-tetramisol] | < 0
36 | COc1ncc(-c2ccc3nccc(-c4ccnnc4)c3c2)cc1NS(=O)(=O)c1ccc(F)cc1F | 53.3
37 | CNC(=O)c1ccc2cc([C@@]3(O)CCn4cncc43)ccc2c1 [Orteronel] | < 0
38 | O=c1c(O)c(-c2ccc(O)cc2)oc2cc(O)cc(O)c12 [Kaempferol] | < 0
39 | Clc1ccc(COC(Cn2ccnc2)c2ccc(Cl)cc2Cl)cc1 (centres undefined) [Econazole nitrate] | < 0

Given with each value named: part of the list above.
Oc1cc(O)c(Cl)cn1 [Gimeracil]
  reduction in cell viability [%]: < 0
C[C@H]1O[C@@H](O[C@H]2[C@@H](O)C[C@H](O[C@H]3[C@@H](O)C[C@H](O[C@H]4CC[C@@]5(C)[C@H](CC[C@@H]6[C@@H]5C[C@@H](O)[C@]5(C)[C@@H](C7=CC(=O)OC7)CC[C@]65O)C4)O[C@@H]3C)O[C@@H]2C)C[C@H](O)[C@@H]1O [Digoxin]
  reduction in cell viability [%]: 70.8
COc1cc(C(=O)NS(=O)(=O)c2ccccc2C)ccc1Cc1cn(C)c2ccc(NC(=O)OC3CCCC3)cc12 [Zafirlukast]
  reduction in cell viability [%]: < 0
